# Measurements as given in the supplement of paper PMC12889115.
# Some of the results follow. Values are raw readings; no control value is given beside them.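 Primary screen: polymyxin B was added at a level permeabilizing Salmonella outer membranes while sparing inner membranes. DMSO wells, both with and without polymyxin B, established maximum growth. Plate-to-plate variation meant each plate was ranked on its own, and the lowest-OD600 compounds were selected as hits.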
# System: Salmonella enterica serovar Typhimurium SL1344
# Test: bacterial growth OD600 after 18 h with compound and polymyxin B; higher = more bacterial growth (less inhibition)
# Settings: 50 µM, Mueller-Hinton broth
SMILES,bacterial growth OD600 (polymyxin B 0.75 µg/mL),bacterial growth OD600 (polymyxin B 1 µg/mL)
COc1ccccc1NC(=O)Nc1ccnn1C1CCN(C(=O)C2CCCCN2C)CC1 (configuration not stated),0.886,–
CCCCN(C)C(=O)CCC1(Cc2ccc(F)cc2)CCC(=O)N1 (configuration not stated),0.946,–
O=C(NCc1cccnc1)C1CCCN(C2CCN(Cc3ccccc3)CC2)C1 (configuration not stated),0.832,–
COc1ccc(C(=O)C2CCCN(C(=O)C#Cc3ccccc3)C2)cc1OC (configuration not stated),–,0.851
CCn1ccnc1CN1CCC(C2CCN(CC(C)C)CC2)C1 (configuration not stated),0.808,–
Cc1cnc(C)c(-c2cc(F)cc3c2OC(CNC(=O)CCN(C)C2CCS(=O)(=O)C2)C3)n1 (configuration not stated),0.825,–
COc1ccc(NC2CCCN(C(=O)C3=NN(C)C(=O)CC3)C2)cc1OC (configuration not stated),–,0.893
CC(C)CCN1CCC(N2CCCC(C(=O)NCc3ccccc3)C2)CC1 (configuration not stated),0.807,–
COc1ccc(-c2nc(CN(C)C(C)c3cccs3)c(C)o2)c(OC)c1C (configuration not stated),0.595,–
COc1cccc(C(C)N(C)Cc2nc(-c3cccc(Cl)c3)oc2C)c1 (configuration not stated),–,0.515
CSCCNC1CCN(c2ccc(NC(=O)c3ccc(C)cc3C)cc2)CC1,0.866,–
Cc1nc(C)c(CC(=O)N2CCOc3ccc(CN4CCN(c5ccc(F)cc5)CC4)cc3C2)s1,0.793,–
O=C(C1CC1)N1CCCC(Nc2ccc(F)c(F)c2)C1 (configuration not stated),–,0.801
CSCCCNC(=O)c1cn(Cc2ccccc2F)nn1,–,0.94
Cc1nc(N2CCC(C(=O)N3CCN(c4cnccn4)CC3)CC2)nc2ccc(C(C)C)cc12,0.742,–
c1ccc(Cn2cc(CN3CCSCC3)c(-c3ccc4c(c3)OCO4)n2)cc1,–,0.184

SMILES,bacterial growth OD600 (polymyxin B 0.75 µg/mL),bacterial growth OD600 (polymyxin B 1 µg/mL)
Cc1nc(N(C)C2CCCCC2)ncc1C(C)NC(=O)c1ccoc1 (configuration not stated),0.645,–
CC(=O)c1cc(C(=O)N2CCc3onc(-c4ccc(F)c(F)c4)c3C2)cs1,0.783,–
Cc1ccn(CC(=O)NCc2cccnc2Oc2cccc(C(F)(F)F)c2)n1,0.76,–
Cc1ccc2nc(N3CCC(C(=O)NCCC(C)C)CC3)nc(C)c2c1,0.825,–
O=C1O[C@@H]2CN(Cc3ccccn3)C[C@@H]2N1CCCc1ccc(F)cc1,0.875,–
CO[C@H]1[C@H](NC(=O)c2ccncc2)c2ccccc2C12CCN(C(=O)c1ccc(CC(C)C)cc1)CC2,0.002,–
O=C(NCCc1ccccn1)c1coc(COc2ccc(F)cc2)n1,–,0.991
O=C(c1ccc(OC2CCN(Cc3ccccn3)CC2)cc1)N1CCCCC1CCO (configuration not stated),–,1.04
CCOC(=O)C1(Cc2cccc(OC)c2)CCN(Cc2csc(C(C)=O)c2)CC1,–,0.752
COc1cccc(-c2cnnc(N(C)Cc3nccn3C)n2)c1,0.75,–
CC(=O)N1CCN(c2ccc(-c3nc(Cc4ccc(F)cc4)no3)cn2)CC1,0.239,–
Cn1nc(C(=O)N2CCCC(CCC(=O)NCc3ccc(F)c(F)c3)C2)ccc1=O (configuration not stated),–,1.24
COc1ccc(-c2nc(CN(C)Cc3ccc(C(F)(F)F)cc3)c(C)o2)c(OC)c1,0.434,–
CCCNC(=O)NC1CC(=O)N(CCc2ccccc2)C1 (configuration not stated),–,0.942
O=C(CCC1CCN(CC2CCOC2)CC1)Nc1ccc2c(c1)OCCO2 (configuration not stated),–,1.01
O=C(NC1CCC1)C1CCC(=O)N(CCCN2CCOCC2)C1 (configuration not stated),–,0.865

# Two of the compounds above, with bars between the fields.
SMILES | bacterial growth OD600 (polymyxin B 0.75 µg/mL) | bacterial growth OD600 (polymyxin B 1 µg/mL)
CC(=O)c1cc(C(=O)N2CCc3onc(-c4ccc(F)c(F)c4)c3C2)cs1 | 0.783 | –
COc1cccc(-c2cnnc(N(C)Cc3nccn3C)n2)c1 | 0.75 | –
